Test results as given in publication PMC4873976, “Structural basis for haem piracy from host haemopexin by Haemophilus influenzae” (Nature Communications, 2016).
These are yes or no findings as the source states them, for the method shown. Some binding calls cover weakened binding; strength is not graded here.

Sequences of proteins named here, by UniProt entry; tags and fusion partners are left off. Residues count along the entry.
UniProt P44602, residues 22-905: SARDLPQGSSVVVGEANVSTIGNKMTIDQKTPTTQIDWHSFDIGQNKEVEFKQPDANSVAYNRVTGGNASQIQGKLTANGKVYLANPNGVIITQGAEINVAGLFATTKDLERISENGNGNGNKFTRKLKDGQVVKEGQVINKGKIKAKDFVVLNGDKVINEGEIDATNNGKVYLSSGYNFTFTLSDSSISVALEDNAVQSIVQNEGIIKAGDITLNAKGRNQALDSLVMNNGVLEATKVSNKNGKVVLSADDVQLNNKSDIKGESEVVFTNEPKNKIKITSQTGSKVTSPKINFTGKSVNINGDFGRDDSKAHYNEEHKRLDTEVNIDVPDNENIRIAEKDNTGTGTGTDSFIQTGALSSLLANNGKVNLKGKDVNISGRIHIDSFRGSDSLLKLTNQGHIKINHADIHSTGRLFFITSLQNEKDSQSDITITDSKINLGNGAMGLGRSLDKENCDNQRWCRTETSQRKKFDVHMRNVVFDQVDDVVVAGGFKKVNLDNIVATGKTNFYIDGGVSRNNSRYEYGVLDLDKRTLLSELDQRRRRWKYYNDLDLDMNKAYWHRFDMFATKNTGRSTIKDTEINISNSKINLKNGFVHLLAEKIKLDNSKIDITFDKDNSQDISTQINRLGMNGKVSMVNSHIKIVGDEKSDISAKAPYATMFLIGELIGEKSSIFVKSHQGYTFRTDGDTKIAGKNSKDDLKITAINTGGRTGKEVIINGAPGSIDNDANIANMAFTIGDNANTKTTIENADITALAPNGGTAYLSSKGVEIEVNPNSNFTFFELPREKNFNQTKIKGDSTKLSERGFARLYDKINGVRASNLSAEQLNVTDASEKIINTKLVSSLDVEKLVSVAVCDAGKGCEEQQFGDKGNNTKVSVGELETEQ

Molecular target: wild-type HxuA on whole E. coli cells (hxuCBA context) (Haemophilus influenzae) (UniProt P44602)
Test: far-Western, overlay or dot blot; whole cells expressing HxuA or its mutants spotted on nitrocellulose, incubated 1 h with 0.1 μM biotinylated haemopexin in TBST, revealed with streptavidin-HRP; only the binder purified

B1: biotinylated rabbit haemopexin (protein, UniProt P20058 26-460)
chain: VPLTSAHGNVTEGESGTKPEADVIEQCSDGWSFDATTLDDNGTMLFFKDEFVWKSHRGIRELISERWKNFIGPVDAAFRHGHTSVYLIKGDKVWVYTSEKNEKVYPKSLQDEFPGIPFPLDAAVECHRGECQDEGILFFQGNRKWFWDLTTGTKKERSWPAVGNCTSALRWLGRYYCFQGNQFLRFNPVSGEVPPGYPLDVRDYFLSCPGRGHRSSHRNSTQHGHESTRCDPDLVLSAMVSDNHGATYVFSGSHYWRLDTNRDGWHSWPIAHQWPQGPSTVDAAFSWEDKLYLIQDTKVYVFLTKGGYTLVNGYPKRLEKELGSPPVISLEAVDAAFVCPGSSRLHIMAGRRLWWLDLKSGAQATWTELPWPHEKVDGALCMEKPLGPNSCSTSGPNLYLIHGPNLYCYRHVDKLNAAKNLPQPQRVSRLLGCTH
modifications: biotin (4,5 biotin molecules/haemopexin molecule)
binding: binds
